PubChem BioAssay AID1224830 | NIAID | 2016
In all, the deposit lists about 18,000 reagents; below is a random part of them. Of all reagents, about 2,900 (16%) are marked active. 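Calls are made per well; low scores hint the gene aids the LPS response, high scores that it dampens it.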 A number with no mark means an inactive call. Repeated entries: four replicate wells of each siRNA pool.

Assay: 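Genes whose knock-down alters the TNF-alpha reporter response to LPS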 (primary screen)
System: human THP-1 monocytic leukaemia cells, TNF dual-luciferase reporter clone, PMA-differentiated to macrophage-like cells
Knock-down reagent: siRNA pool against human genes, 50 nM
Duration: LPS for 4 h, given about 3 days after siRNA transfection
Challenge: bacterial LPS (TLR4 ligand), 10 ng/ml
Read-out: 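Ratio of firefly to renilla light, scaled to the plate median and expressed as a robust z-score per replicate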
Scale: TNF reporter robust z-score: higher = stronger TNF reporter response to LPS
Call rule: 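Each well counts as active if its z-score is over 2.8 or under -1.5; controls are left without a call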

gene knocked down | TNF reporter robust z-score
OR14I1 (olfactory receptor family 14 subfamily I member 1) | 3.63 (active)
OR14I1 (olfactory receptor family 14 subfamily I member 1) | 3.54 (active)
OR14I1 (olfactory receptor family 14 subfamily I member 1) | 3.68 (active)
OR14I1 (olfactory receptor family 14 subfamily I member 1) | 1.27
MAP4K2 (mitogen-activated protein kinase kinase kinase kinase 2) | 1.26
MAP4K2 (mitogen-activated protein kinase kinase kinase kinase 2) | 0.37
MAP4K2 (mitogen-activated protein kinase kinase kinase kinase 2) | -0.13
MAP4K2 (mitogen-activated protein kinase kinase kinase kinase 2) | 1.66
HEATR9 (HEAT repeat containing 9) | 0.9
HEATR9 (HEAT repeat containing 9) | 1.13
HEATR9 (HEAT repeat containing 9) | -0.38
HEATR9 (HEAT repeat containing 9) | 0.15
TIMM10B (translocase of inner mitochondrial membrane 10B) | 0.54
TIMM10B (translocase of inner mitochondrial membrane 10B) | 0.1
TIMM10B (translocase of inner mitochondrial membrane 10B) | 0.15
TIMM10B (translocase of inner mitochondrial membrane 10B) | 0.45
PDZK1IP1 (PDZK1 interacting protein 1) | 0.06
PDZK1IP1 (PDZK1 interacting protein 1) | -0.37
PDZK1IP1 (PDZK1 interacting protein 1) | -0.17
PDZK1IP1 (PDZK1 interacting protein 1) | -0.93
IFNA1 (interferon alpha 1) | 1.09
IFNA1 (interferon alpha 1) | -0.35
IFNA1 (interferon alpha 1) | 2.83 (active)
IFNA1 (interferon alpha 1) | 0.27
RAB7B (RAB7B, member RAS oncogene family) | 1.5
RAB7B (RAB7B, member RAS oncogene family) | 2.07
RAB7B (RAB7B, member RAS oncogene family) | 0.24
RAB7B (RAB7B, member RAS oncogene family) | 1.32
CCL4L2 (C-C motif chemokine ligand 4 like 2) | 0.3
CCL4L2 (C-C motif chemokine ligand 4 like 2) | -0.35
CCL4L2 (C-C motif chemokine ligand 4 like 2) | -0.67
CCL4L2 (C-C motif chemokine ligand 4 like 2) | -0.6
PPFIA2 (PPFI scaffold protein A2) | -0.27
PPFIA2 (PPFI scaffold protein A2) | 0.98
PPFIA2 (PPFI scaffold protein A2) | -0.05
PPFIA2 (PPFI scaffold protein A2) | -0.11
CTSK (cathepsin K) | -0.19
CTSK (cathepsin K) | -0.2
CTSK (cathepsin K) | -0.9
CTSK (cathepsin K) | -0.62
KANK2 (KN motif and ankyrin repeat domains 2) | -1.33
KANK2 (KN motif and ankyrin repeat domains 2) | 0
KANK2 (KN motif and ankyrin repeat domains 2) | -0.94
KANK2 (KN motif and ankyrin repeat domains 2) | 1.83
SPX (spexin hormone) | 0.65
SPX (spexin hormone) | 1.28
SPX (spexin hormone) | -0.34
SPX (spexin hormone) | 0.99
USP39 (ubiquitin specific peptidase 39) | -1.45
USP39 (ubiquitin specific peptidase 39) | -0.48
USP39 (ubiquitin specific peptidase 39) | -0.06
USP39 (ubiquitin specific peptidase 39) | -0.02
RPL23A (ribosomal protein L23a) | -0.97
RPL23A (ribosomal protein L23a) | -0.75
RPL23A (ribosomal protein L23a) | -0.93
RPL23A (ribosomal protein L23a) | -0.37
HORMAD1 (HORMA domain containing 1) | 1.73
HORMAD1 (HORMA domain containing 1) | 2.88 (active)
HORMAD1 (HORMA domain containing 1) | 1.75
HORMAD1 (HORMA domain containing 1) | 25.5 (active)
RANBP2 (RAN binding protein 2) | -1.18
RANBP2 (RAN binding protein 2) | -0.76
RANBP2 (RAN binding protein 2) | -1.37
RANBP2 (RAN binding protein 2) | -1
REEP2 (receptor accessory protein 2) | -0.98
REEP2 (receptor accessory protein 2) | -0.58
REEP2 (receptor accessory protein 2) | -1.24
REEP2 (receptor accessory protein 2) | -0.99
SKOR1 (SKI family transcriptional corepressor 1) | 0.66
SKOR1 (SKI family transcriptional corepressor 1) | 0.44
SKOR1 (SKI family transcriptional corepressor 1) | 3.88 (active)
SKOR1 (SKI family transcriptional corepressor 1) | 2.36
FYN (FYN proto-oncogene, Src family tyrosine kinase) | -0.09
FYN (FYN proto-oncogene, Src family tyrosine kinase) | -0.03
FYN (FYN proto-oncogene, Src family tyrosine kinase) | 0.72
FYN (FYN proto-oncogene, Src family tyrosine kinase) | -0.17

8 of these entries in another layout:
{"gene knocked down": "MAP4K2 (mitogen-activated protein kinase kinase kinase kinase 2)", "TNF reporter robust z-score": 1.26}
{"gene knocked down": "MAP4K2 (mitogen-activated protein kinase kinase kinase kinase 2)", "TNF reporter robust z-score": 0.37}
{"gene knocked down": "MAP4K2 (mitogen-activated protein kinase kinase kinase kinase 2)", "TNF reporter robust z-score": -0.13}
{"gene knocked down": "MAP4K2 (mitogen-activated protein kinase kinase kinase kinase 2)", "TNF reporter robust z-score": 1.66}
{"gene knocked down": "HEATR9 (HEAT repeat containing 9)", "TNF reporter robust z-score": 0.9}
{"gene knocked down": "HEATR9 (HEAT repeat containing 9)", "TNF reporter robust z-score": 1.13}
{"gene knocked down": "HEATR9 (HEAT repeat containing 9)", "TNF reporter robust z-score": -0.38}
{"gene knocked down": "HEATR9 (HEAT repeat containing 9)", "TNF reporter robust z-score": 0.15}
